According to US20260217701A1, “SELECTIVE BET INHIBITORS AND USES THEREOF” (Tay Therapeutics Limited, priority 2022, published 2026):
Values joined by “and” are separate entries in the source; they are usually repeats but may differ in a detail not shown here. Equal entries are not always repeated. This continues a long series; more values of the same kind are listed elsewhere.

Tested on: collagen-induced arthritis
Assay: Collagen-induced arthritis (CIA) model: clinical scores and paw volume; on Animal paw volume percent change (%): reference of the scale not given here
Assay type: in vivo, Lewis rats
Conditions: for Animal paw volume percent change (%) / clinical score (score, all limbs) / clinical score left forelimb / clinical score left hind limb / clinical score right forelimb / clinical score right hind limb / Animal paw volume: individual animals; for Overall Clinical Score: individual animals 1-8; for clinical score (score, all limbs) / clinical score left forelimb / clinical score left hind limb / clinical score right forelimb / clinical score right hind limb: CIA

Structure (SMILES): Cn1cc(-c2ccccc2)c(-c2cn(C)c(=O)c3[nH]c(-c4cnn(C(F)(F)F)c4)cc23)cc1=O [Compound A, 6-methyl-4-(1-methyl-2-oxo-5-phenyl-1,2-dihydropyridin-4-yl)-2-(1-(trifluoromethyl)-1H-pyrazol-4-yl)-1,6-dihydro-7H-pyrrolo[2,3-c]pyridin-7-one]
- Animal paw volume percent change (%) (Day 0, L paw, group 5 CIA + Compound A 1 mg/kg): 0.00%
- Animal paw volume percent change (%) (Day 0, L paw, group 6 CIA + Compound A 3 mg/kg): 0.00%
- Animal paw volume percent change (%) (Day 0, L paw, group 7 CIA + Compound A 10 mg/kg): 0.00%
- Animal paw volume percent change (%) (Day 0, R paw, group 5 CIA + Compound A 1 mg/kg): 0.00%
- Animal paw volume percent change (%) (Day 0, R paw, group 6 CIA + Compound A 3 mg/kg): 0.00%
- Animal paw volume percent change (%) (Day 0, R paw, group 7 CIA + Compound A 10 mg/kg): 0.00%
- Overall Clinical Score (Day 0, CIA + Compound A 10 mg/kg): 0
- clinical score (score, all limbs) (Day 0, 1 mg/kg): 0
- clinical score left forelimb (Day 0, 1 mg/kg): 0
- clinical score left hind limb (Day 0, 1 mg/kg): 0
- clinical score right forelimb (Day 0, 1 mg/kg): 0
- clinical score right hind limb (Day 0, 1 mg/kg): 0
- clinical score (score, all limbs) (Day 0, 3 mg/kg): 0
- clinical score left forelimb (Day 0, 3 mg/kg): 0
- clinical score left hind limb (Day 0, 3 mg/kg): 0
- clinical score right forelimb (Day 0, 3 mg/kg): 0
- clinical score right hind limb (Day 0, 3 mg/kg): 0
- clinical score (score, all limbs) (Day 0, 10 mg/kg): 0
- clinical score left forelimb (Day 0, 10 mg/kg): 0
- clinical score left hind limb (Day 0, 10 mg/kg): 0
- clinical score right forelimb (Day 0, 10 mg/kg): 0
- clinical score right hind limb (Day 0, 10 mg/kg): 0
- Animal paw volume (Day 0, L paw, Group 5 (CIA + Compound A 1 mg/kg), 1 mg/kg): 1.35 mL and 1.31 mL and 1.29 mL and 1.36 mL and 1.33 mL (3×) and 1.34 mL
- Animal paw volume (Day 0, L paw, Group 6 (CIA + Compound A 3 mg/kg), 3 mg/kg): 1.32 mL (2×) and 1.29 mL and 1.37 mL and 1.31 mL (3×) and 1.34 mL
- Animal paw volume (Day 0, L paw, Group 7 (CIA + Compound A 10 mg/kg), 10 mg/kg): 1.31 mL (2×) and 1.29 mL (2×) and 1.33 mL (2×) and 1.35 mL (2×)
- Animal paw volume (Day 0, R paw, Group 5 (CIA + Compound A 1 mg/kg), 1 mg/kg): 1.35 mL and 1.31 mL and 1.30 mL and 1.38 mL and 1.33 mL (2×) and 1.36 mL and 1.32 mL
- Animal paw volume (Day 0, R paw, Group 6 (CIA + Compound A 3 mg/kg), 3 mg/kg): 1.33 mL (2×) and 1.29 mL and 1.35 mL and 1.30 mL (2×) and 1.34 mL and 1.31 mL
- Animal paw volume (Day 0, R paw, Group 7 (CIA + Compound A 10 mg/kg), 10 mg/kg): 1.31 mL and 1.29 mL (2×) and 1.32 mL and 1.34 mL (3×) and 1.30 mL
- Animal paw volume percent change (%) (Day 6, L paw, group 5 CIA + Compound A 1 mg/kg, 1 mg/kg): 0.74% and 1.53% and 0.39% and 2.95% and 1.51% (2×) and 2.25% and 1.89%
- Animal paw volume percent change (%) (Day 6, L paw, group 6 CIA + Compound A 3 mg/kg, 3 mg/kg): 0.00% (2×) and 4.67% and 1.90% and 0.77% and 1.50% and 1.15% and 1.53%
- Animal paw volume percent change (%) (Day 6, L paw, group 7 CIA + Compound A 10 mg/kg, 10 mg/kg): 1.15% and 0.00% (2×) and 3.02% (2×) and 3.72% and 1.49% and 0.77%
- Animal paw volume percent change (%) (Day 6, R paw, group 5 CIA + Compound A 1 mg/kg, 1 mg/kg): 0.74% (2×) and 1.53% and 0.00% and 2.18% and 1.51% and 2.28% and 2.26%
- Animal paw volume percent change (%) (Day 6, R paw, group 6 CIA + Compound A 3 mg/kg, 3 mg/kg): 0.00% (2×) and 3.89% and 2.26% and 2.32% (2×) and 0.75% and 1.53%
- Animal paw volume percent change (%) (Day 6, R paw, group 7 CIA + Compound A 10 mg/kg, 10 mg/kg): 0.00% (4×) and 3.79% and 4.10% and 2.24% and 2.62%
- Overall Clinical Score (Day 6, CIA + Compound A 10 mg/kg): 0
- clinical score (score, all limbs) (Day 6, 1 mg/kg): 0
- clinical score left forelimb (Day 6, 1 mg/kg): 0
- clinical score left hind limb (Day 6, 1 mg/kg): 0
- clinical score right forelimb (Day 6, 1 mg/kg): 0
- clinical score right hind limb (Day 6, 1 mg/kg): 0
- clinical score (score, all limbs) (Day 6, 3 mg/kg): 0
- clinical score left forelimb (Day 6, 3 mg/kg): 0
- clinical score left hind limb (Day 6, 3 mg/kg): 0
- clinical score right forelimb (Day 6, 3 mg/kg): 0
- clinical score right hind limb (Day 6, 3 mg/kg): 0
- clinical score (score, all limbs) (Day 6, 10 mg/kg): 0
- clinical score left forelimb (Day 6, 10 mg/kg): 0
- clinical score left hind limb (Day 6, 10 mg/kg): 0
- clinical score right forelimb (Day 6, 10 mg/kg): 0
- clinical score right hind limb (Day 6, 10 mg/kg): 0
- Animal paw volume (Day 6, L paw, Group 5 (CIA + Compound A 1 mg/kg), 1 mg/kg): 1.36 mL and 1.33 mL and 1.30 mL and 1.40 mL and 1.35 mL (3×) and 1.37 mL
- Animal paw volume (Day 6, L paw, Group 6 (CIA + Compound A 3 mg/kg), 3 mg/kg): 1.32 mL (2×) and 1.35 mL and 1.34 mL and 1.37 mL and 1.36 mL and 1.33 mL (2×)
- Animal paw volume (Day 6, L paw, Group 7 (CIA + Compound A 10 mg/kg), 10 mg/kg): 1.32 mL (2×) and 1.29 mL (2×) and 1.37 mL (3×) and 1.40 mL
- Animal paw volume (Day 6, R paw, Group 5 (CIA + Compound A 1 mg/kg), 1 mg/kg): 1.36 mL (2×) and 1.33 mL and 1.30 mL and 1.41 mL and 1.35 mL (2×) and 1.37 mL
- Animal paw volume (Day 6, R paw, Group 6 (CIA + Compound A 3 mg/kg), 3 mg/kg): 1.33 mL (4×) and 1.34 mL and 1.36 mL and 1.35 mL (2×)
- Animal paw volume (Day 6, R paw, Group 7 (CIA + Compound A 10 mg/kg), 10 mg/kg): 1.31 mL and 1.29 mL (2×) and 1.37 mL (3×) and 1.40 mL and 1.30 mL
- Animal paw volume percent change (%) (Day 12, L paw, group 5 CIA + Compound A 1 mg/kg, 1 mg/kg): 2.97% and 4.21% and 2.71% and 5.17% and 8.30% and 4.49% and 3.02% (2×)
- Animal paw volume percent change (%) (Day 12, L paw, group 6 CIA + Compound A 3 mg/kg, 3 mg/kg): 0.76% and 5.45% and 2.28% and 1.47% and 3.07% and 2.25% and 3.44% and 16.09%
- Animal paw volume percent change (%) (Day 12, L paw, group 7 CIA + Compound A 10 mg/kg, 10 mg/kg): 4.60% and 3.11% and 3.77% and 4.46% and 2.23% and 3.02% and 1.56% and 3.83%
- Animal paw volume percent change (%) (Day 12, R paw, group 5 CIA + Compound A 1 mg/kg, 1 mg/kg): 2.23% and 3.45% and 3.09% and 4.36% and 18.11% and 5.17% and 3.04% and 12.08%
- Animal paw volume percent change (%) (Day 12, R paw, group 6 CIA + Compound A 3 mg/kg, 3 mg/kg): 2.26% (2×) and 5.84% and 2.23% and 3.86% and 1.50% and 2.30% and 7.72%
- Animal paw volume percent change (%) (Day 12, R paw, group 7 CIA + Compound A 10 mg/kg, 10 mg/kg): 2.30% and 3.11% and 5.68% and 3.36% and 12.31% and 2.25% and 2.33% and 3.86%
- Overall Clinical Score (Day 12, CIA + Compound A 3 mg/kg, 3 mg/kg): 1
- Overall Clinical Score (Day 12, CIA + Compound A 10 mg/kg, 10 mg/kg): 0 (7×) and 2
- clinical score left forelimb (Day 12, 1 mg/kg): 0
- clinical score left hind limb (Day 12, 1 mg/kg): 0
- clinical score right forelimb (Day 12, 1 mg/kg): 0
- clinical score (score, all limbs) (Day 12, 1 mg/kg, 1 mg/kg): 0 (7×) and 1
- clinical score right hind limb (Day 12, 1 mg/kg, 1 mg/kg): 0 (7×) and 1
- clinical score left forelimb (Day 12, 3 mg/kg): 0
- clinical score right forelimb (Day 12, 3 mg/kg): 0
- clinical score right hind limb (Day 12, 3 mg/kg): 0
- clinical score (score, all limbs) (Day 12, 3 mg/kg, 3 mg/kg): 0 (7×) and 1
- clinical score left hind limb (Day 12, 3 mg/kg, 3 mg/kg): 0 (7×) and 1
- clinical score left forelimb (Day 12, 10 mg/kg): 0
- clinical score left hind limb (Day 12, 10 mg/kg): 0
- clinical score (score, all limbs) (Day 12, 10 mg/kg, 10 mg/kg): 0 (7×) and 2
- clinical score right forelimb (Day 12, 10 mg/kg, 10 mg/kg): 0 (7×) and 1
- clinical score right hind limb (Day 12, 10 mg/kg, 10 mg/kg): 0 (7×) and 1
- Animal paw volume (Day 12, L paw, Group 5 (CIA + Compound A 1 mg/kg), 1 mg/kg): 1.39 mL and 1.36 mL and 1.33 mL and 1.43 mL and 1.44 mL and 1.40 mL and 1.37 mL (2×)
- Animal paw volume (Day 12, L paw, Group 6 (CIA + Compound A 3 mg/kg), 3 mg/kg): 1.33 mL and 1.36 mL (2×) and 1.35 mL (2×) and 1.39 mL and 1.37 mL and 1.52 mL
- Animal paw volume (Day 12, L paw, Group 7 (CIA + Compound A 10 mg/kg), 10 mg/kg): 1.37 mL (2×) and 1.33 mL and 1.38 mL (2×) and 1.41 mL and 1.31 mL and 1.36 mL
- Animal paw volume (Day 12, R paw, Group 5 (CIA + Compound A 1 mg/kg), 1 mg/kg): 1.38 mL and 1.35 mL and 1.34 mL and 1.44 mL and 1.57 mL and 1.43 mL and 1.36 mL and 1.49 mL
- Animal paw volume (Day 12, R paw, Group 6 (CIA + Compound A 3 mg/kg), 3 mg/kg): 1.36 mL (4×) and 1.38 mL and 1.35 mL and 1.34 mL and 1.40 mL
- Animal paw volume (Day 12, R paw, Group 7 (CIA + Compound A 10 mg/kg), 10 mg/kg): 1.34 mL and 1.33 mL and 1.40 mL and 1.39 mL and 1.51 mL and 1.37 mL and 1.32 mL and 1.35 mL
- Animal paw volume percent change (%) (Day 13, L paw, group 5 CIA + Compound A 1 mg/kg, 1 mg/kg): 4.83% and 6.13% and 4.26% and 5.17% and 18.11% and 6.74% and 7.55% and 6.79%
- Animal paw volume percent change (%) (Day 13, L paw, group 6 CIA + Compound A 3 mg/kg, 3 mg/kg): 2.28% (2×) and 8.56% and 2.20% and 8.43% and 3.75% and 6.49% and 18.39%
- Animal paw volume percent change (%) (Day 13, L paw, group 7 CIA + Compound A 10 mg/kg, 10 mg/kg): 4.60% and 5.45% and 7.55% and 4.46% and 23.42% and 4.53% and 2.33% and 5.36%
- Animal paw volume percent change (%) (Day 13, R paw, group 5 CIA + Compound A 1 mg/kg, 1 mg/kg): 3.72% and 5.36% and 4.63% and 4.36% and 18.87% and 5.90% and 3.80% and 14.34%
- Animal paw volume percent change (%) (Day 13, R paw, group 6 CIA + Compound A 3 mg/kg, 3 mg/kg): 3.02% (2×) and 5.84% and 5.95% and 4.63% and 3.75% and 5.36% and 18.53%
- Animal paw volume percent change (%) (Day 13, R paw, group 7 CIA + Compound A 10 mg/kg, 10 mg/kg): 2.30% and 3.89% and 6.44% and 19.03% and 16.04% and 2.25% and 4.67% and 4.63%
- Overall Clinical Score (Day 13, CIA + Compound A 3 mg/kg, 3 mg/kg): 2
- Overall Clinical Score (Day 13, CIA + Compound A 10 mg/kg, 10 mg/kg): 0 (6×) and 1 and 3
- Animal paw volume (Day 13, L paw, Group 5 (CIA + Compound A 1 mg/kg), 1 mg/kg): 1.41 mL and 1.39 mL and 1.35 mL and 1.43 mL (3×) and 1.57 mL and 1.42 mL
- Animal paw volume (Day 13, L paw, Group 6 (CIA + Compound A 3 mg/kg), 3 mg/kg): 1.35 mL (2×) and 1.40 mL (3×) and 1.42 mL and 1.39 mL and 1.55 mL
